Test results as given in patent publication US8216786B2, “Genetic polymorphisms associated with cardiovascular diseases, methods of detection and uses thereof” (Celera Corporation, priority 2008, dated 2012).
The source gives many values for each of these; only a part stands here.

Test system: individuals who have previously had an MI
Experiment: CARE trial: effect of pravastatin vs placebo on coronary events (endpt1, rmi) by SNP genotype subgroup
Type: in vivo, human
Conditions: endpt1
Protocol: In Tables 21-22, the column labeled “Endpoint” indicates whether the endpoint that was analyzed was the primary endpoint of the CARE study (a composite endpoint of fatal coronary event or nonfatal MI, and identified as “endpt1”) or a composite endpoint of confirmed fatal or nonfatal MI (identified as “rmi”). […] As used herein, the term “benefit” (with respect to a preventive or therapeutic drug treatment) is defined as achieving a reduced risk for a disease that the drug is intended to treat or prevent (e.g., CVD such as CHD, particularly MI, or hypertension) by administering the drug treatment, compared with the risk for the disease in the absence of receiving the drug treatment (or receiving a placebo in lieu of the drug treatment) for the same genotype. […] J. […] (1996) New England Journal of Medicine 335: 1001-1009. […] A well-documented MI was one of the enrollment criteria for entry into the CARE study. Patients were enrolled in the CARE trial from 80 participating study centers. […] For the study of CARE described in this Example and shown in Tables 21-22, two endpoints were investigated: the primary endpoint of CARE (a composite endpoint of fatal coronary event or nonfatal MI, and identified as “endpt1” in the Endpoint column of Tables 21-22) and a composite endpoint of confirmed fatal or nonfatal MI (identified as “rmi” in the Endpoint column of Tables 21-22). […] HR stands for Hazard Ratio, which is a concept similar to Odds Ratio (OR). The HR in event-free survival analysis is the effect of an explanatory variable on the hazard or risk of an event. […] In Table 21, p-interaction values were calculated. An interaction (or effect modification) is formed when a third variable modifies the relation between an exposure and outcome. […] Genotype and drug interaction is present when the effect of statins (incidence rate of disease in statin-treated group, as compared to placebo) differs in patients with different genotypes.

[1] = hCV8785827 rs992969 IL33, strata GG
[2] = hCV8892418 rs901746 ACP2, strata AA
[3] = hCV8892418 rs901746 ACP2, strata GA + GG
[4] = hCV9581635 rs1748195 DOCK7, strata CC
[5] = hCV9581635 rs1748195 DOCK7, strata CG + GG
[6] = hCV9586862 rs995000 DOCK7, strata CC
[7] = hCV9586862 rs995000 DOCK7, strata CT + TT
[8] = hCV11170747 rs2066853 AHR, Strata AG + AA
[9] = hCV11170747 rs2066853 AHR, Strata GG
[10] = hCV11181829 rs5713 ACSM3, Strata CT + CC
[11] = hCV11181829 rs5713 ACSM3, Strata TT
[12] = hCV11225994 rs1853021 LPA, Strata AG + AA
[13] = hCV11225994 rs1853021 LPA, Strata GG
[14] = hCV11438723 rs1877273 WWOX, Strata TC + CC
[15] = hCV11438723 rs1877273 WWOX, Strata TT
[16] = hCV11461296 JAK3, Strata CG + CC
[17] = hCV11466848 rs1805419 BAX, Strata AG + AA
[18] = hCV11466848 rs1805419 BAX, Strata GG
[19] = hCV11513719 rs2967605 ELAVL1, Strata CC
[20] = hCV11513719 rs2967605 ELAVL1, Strata TC + TT
[21] = hCV11568668 rs1317538 KCNQ5, strata AA
[22] = hCV11568668 rs1317538 KCNQ5, strata AG
[23] = hCV11568668 rs1317538 KCNQ5, strata GG
[24] = hCV11628130 rs2665802 GH1, Strata TA + AA
[25] = hCV11628130 rs2665802 GH1, Strata TT
[26] = hCV11642651 rs1800440 C2orf58, Strata CC
[27] = hCV11642651 rs1800440 C2orf58, Strata CT + TT
[28] = hCV11678789 rs7219148, strata TG + GG
[29] = hCV11678789 rs7219148, strata TT
[30] = hCV11697322 rs1926447 CPB2, Strata AG + AA
[31] = hCV11697322 rs1926447 CPB2, Strata GG
[32] = hCV11764545 rs4961 ADD1, Strata TG + GG
[33] = hCV11764545 rs4961 ADD1, Strata TT
[34] = hCV11864162 rs1167998 DOCK7, strata AA
[35] = hCV11864162 rs1167998 DOCK7, strata AC + CC
[36] = hCV11955747 rs9901673 CD68, Strata AC + AA
[37] = hCV11955747 rs9901673 CD68, Strata CC
[38] = hCV11972326 rs5988 F13A1, Strata GC + CC
[39] = hCV11972326 rs5988 F13A1, Strata GG
[40] = hCV12020339 rs4531 DBH, Strata GG
[41] = hCV12020339 rs4531 DBH, Strata TG + TT
[42] = hCV12108469 CYP4A11, Strata AG + GG
[43] = hCV15746640 rs41271951 CTSS, Strata AA
[44] = hCV15746640 rs41271951 CTSS, Strata GA + GG
[45] = hCV15758290 rs6716834 LRP2, Strata AA
[46] = hCV15758290 rs6716834 LRP2, Strata GA + GG
[47] = hCV15760070 rs2308911 HLA-DPA1, Strata TA + AA
[48] = hCV15760070 rs2308911 HLA-DPA1, Strata TT

CC[C@H](C)C(=O)O[C@H]1C[C@H](O)C=C2C=C[C@H](C)[C@H](CC[C@@H](O)C[C@@H](O)CC(=O)O)[C@H]21 [pravastatin]
EVENTS (Pravastatin arm) [1]: 75
NONEVENT (Pravastatin arm) [1]: 675
EVENTS (Pravastatin arm) [2]: 83
NONEVENT (Pravastatin arm) [2]: 632
EVENTS (Pravastatin arm) [3]: 53
NONEVENT (Pravastatin arm) [3]: 630
EVENTS (Pravastatin arm) [4]: 52
NONEVENT (Pravastatin arm) [4]: 575
EVENTS (Pravastatin arm) [5]: 84
NONEVENT (Pravastatin arm) [5]: 687
EVENTS (Pravastatin arm) [6]: 52
NONEVENT (Pravastatin arm) [6]: 577
EVENTS (Pravastatin arm) [7]: 84
NONEVENT (Pravastatin arm) [7]: 688
EVENTS (Pravastatin arm) [8]: 20
NONEVENT (Pravastatin arm) [8]: 283
EVENTS (Pravastatin arm) [9]: 112
NONEVENT (Pravastatin arm) [9]: 1008
EVENTS (Pravastatin arm) [10]: 8
NONEVENT (Pravastatin arm) [10]: 23
EVENTS (Pravastatin arm) [11]: 124
NONEVENT (Pravastatin arm) [11]: 1259
EVENTS (Pravastatin arm) [12]: 37
NONEVENT (Pravastatin arm) [12]: 311
EVENTS (Pravastatin arm) [13]: 92
NONEVENT (Pravastatin arm) [13]: 973
EVENTS (Pravastatin arm) [14]: 133
NONEVENT (Pravastatin arm) [14]: 1270
EVENTS (Pravastatin arm) [15]: 0
NONEVENT (Pravastatin arm) [15]: 12
EVENTS (Pravastatin arm) [16]: 1
NONEVENT (Pravastatin arm) [16]: 49
EVENTS (Pravastatin arm) (hCV11461296 JAK3, Strata GG): 125
NONEVENT (Pravastatin arm) (hCV11461296 JAK3, Strata GG): 1204
EVENTS (Pravastatin arm) [17]: 53
NONEVENT (Pravastatin arm) [17]: 620
EVENTS (Pravastatin arm) [18]: 83
NONEVENT (Pravastatin arm) [18]: 645
EVENTS (Pravastatin arm) [19]: 95
NONEVENT (Pravastatin arm) [19]: 832
EVENTS (Pravastatin arm) [20]: 40
NONEVENT (Pravastatin arm) [20]: 425
EVENTS (Pravastatin arm) [21]: 43
NONEVENT (Pravastatin arm) [21]: 324
EVENTS (Pravastatin arm) [22]: 70
NONEVENT (Pravastatin arm) [22]: 607
EVENTS (Pravastatin arm) [23]: 23
NONEVENT (Pravastatin arm) [23]: 336
EVENTS (Pravastatin arm) [24]: 113
NONEVENT (Pravastatin arm) [24]: 1034
EVENTS (Pravastatin arm) [25]: 18
NONEVENT (Pravastatin arm) [25]: 254
EVENTS (Pravastatin arm) [26]: 3
NONEVENT (Pravastatin arm) [26]: 54
EVENTS (Pravastatin arm) [27]: 130
NONEVENT (Pravastatin arm) [27]: 1237
EVENTS (Pravastatin arm) [28]: 111
NONEVENT (Pravastatin arm) [28]: 918
EVENTS (Pravastatin arm) [29]: 25
NONEVENT (Pravastatin arm) [29]: 348
EVENTS (Pravastatin arm) (hCV11689916, Strata AA): 35
NONEVENT (Pravastatin arm) (hCV11689916, Strata AA): 369
EVENTS (Pravastatin arm) (hCV11689916, Strata AT + TT): 97
NONEVENT (Pravastatin arm) (hCV11689916, Strata AT + TT): 863
EVENTS (Pravastatin arm) [30]: 74
NONEVENT (Pravastatin arm) [30]: 632
EVENTS (Pravastatin arm) [31]: 59
NONEVENT (Pravastatin arm) [31]: 655
EVENTS (Pravastatin arm) [32]: 131
NONEVENT (Pravastatin arm) [32]: 1238
EVENTS (Pravastatin arm) [33]: 2
NONEVENT (Pravastatin arm) [33]: 52
EVENTS (Pravastatin arm) [34]: 52
NONEVENT (Pravastatin arm) [34]: 570
EVENTS (Pravastatin arm) [35]: 84
NONEVENT (Pravastatin arm) [35]: 692
EVENTS (Pravastatin arm) [36]: 30
NONEVENT (Pravastatin arm) [36]: 399
EVENTS (Pravastatin arm) [37]: 103
NONEVENT (Pravastatin arm) [37]: 891
EVENTS (Pravastatin arm) [38]: 120
NONEVENT (Pravastatin arm) [38]: 1217
EVENTS (Pravastatin arm) [39]: 13
NONEVENT (Pravastatin arm) [39]: 69
EVENTS (Pravastatin arm) [40]: 104
NONEVENT (Pravastatin arm) [40]: 1095
EVENTS (Pravastatin arm) [41]: 28
NONEVENT (Pravastatin arm) [41]: 192
EVENTS (Pravastatin arm) (hCV12108469 CYP4A11, Strata AA): 2
NONEVENT (Pravastatin arm) (hCV12108469 CYP4A11, Strata AA): 60
EVENTS (Pravastatin arm) [42]: 128
NONEVENT (Pravastatin arm) [42]: 1225
EVENTS (Pravastatin arm) [43]: 109
NONEVENT (Pravastatin arm) [43]: 1096
EVENTS (Pravastatin arm) [44]: 24
NONEVENT (Pravastatin arm) [44]: 194
EVENTS (Pravastatin arm) [45]: 58
NONEVENT (Pravastatin arm) [45]: 635
EVENTS (Pravastatin arm) [46]: 75
NONEVENT (Pravastatin arm) [46]: 648
EVENTS (Pravastatin arm) [47]: 126
NONEVENT (Pravastatin arm) [47]: 1258
EVENTS (Pravastatin arm) [48]: 7
NONEVENT (Pravastatin arm) [48]: 31
EVENTS (Pravastatin arm) (hCV15851335 rs17610395 CPT1A, Strata CC): 111
